No constants are given. Whether binding was seen depends on the method and setting. In cells and extracts the contact can be indirect.
Target: Mcl-1 (human (endogenous in XG-2 and KMS-12PE)), Q07820
Assay: co-IP; endogenous proteins; XG-2 and KMS-12PE lysates (1% digitonin lysis buffer) immunoprecipitated with anti-Bcl-2 or anti-Mcl-1 antibodies, western blot
Conditions: remark: other sources report otherwise

B1: Bik, Q13323 1-160 (protein)
chain: MSEVRPLSRDILMETLLYEQLLEPPTMEVLGMTDSEEDLDPMEDFDSLECMEGSDALALRLACIGDEMDVSLRAPRLAQLSEVAMHSLGLAFIYDQTEDIRDVLRSFMDGFTTLKENIMRFWRSPNPGSWVSCEQVLLALLLLLALLLPLLSGGLHLLLK
- binding: no binding

— paper PMC3008608
